Test results taken from patent EP4830731A1, “TUMOR MICROENVIRONMENT-ACTIVATED DRUG CONJUGATE AND ANTIBODY-DRUG CONJUGATE” (dated 2026).

How the values were obtained:
[1] = Aqueous solution stability (HPLC); details: content relative to 0 hour by HPLC, 0.2 µmol/mL in DMSO/water, water bath 25 °C / 37 °C
Procedure: Each drug conjugate compound was accurately weighed and dissolved in a certain amount of DMSO to prepare a stock solution at a concentration of 10 µmol/mL. Then, 10 µL of the stock solution was added to 80 µL of DMSO to dilute to a concentration of 1 µmol/mL, and then further diluted with pure water at a ratio of 1:4 to achieve a sample solution concentration of 0.2 µmol/mL. After the sample became clear, it was placed in a water bath at 25 °C / 37 °C. Samples were taken at 0 hour and 24 hours and analyzed by HPLC (Agilent 1260, column: Eclipse Plus C18, 4.6×250 mm, 5 µm; mobile phase A: 0.1% TFA + H2O; mobile phase B: CH3CN; flow rate: 1.0 mL/min; column temperature: 30 °C; detection wavelength: 214 nm) to determine the content of the drug conjugate relative to that at 0 hour, thereby obtaining the solution stability data of the different compounds.

[2] = system: acidified CT-26 tumor tissue homogenate; test: Enzymatic cleavage (activation) in tumor tissue homogenate; details: acidified CT-26 tumor tissue homogenate pH 5.0, 37°C, released drug by HPLC
Procedure: A certain amount of the drug conjugates were weighed, dissolved, and diluted tenfold to a concentration of 0.1 mM/ml. The drug conjugates were added at a concentration of 1 mg/ml to 100 µg of acidified CT-26 tumor tissue homogenate (pH 5.0) at 37°C. The enzymes in the tumor tissue homogenate were able to release the drug, and the released drug was detected by HPLC to compare the activation efficiency of the linker in the tumor tissue.

[3] = Human plasma stability (HPLC); details: 37 °C
Procedure: An appropriate amount of sample was weighed and dissolved in DMSO to prepare a 1 mM solution. Human plasma was added at a volume ratio of 1:9, and the mixture was incubated in an incubator at 37 °C. Aliquots were taken at 0, 2, 4, 6, and 24 hours, and DMSO/MeOH (1:1) was added at a volume ratio of 1:3 to remove proteins. The mixture was centrifuged at 12000 rpm for 5 minutes, and the supernatant was collected. The HPLC analysis was performed using the method described above (Agilent 1260, column: Eclipse Plus C18, 4.6 * 250 mm, 5 µm; mobile phase A: 0.1% TFA + H2O; mobile phase B: CH3CN; flow rate: 1.0 mL/min; column temperature: 30 °C; detection wavelength: 214 nm).

[4] = Lung tissue homogenate stability (Dxd release); details: pH 5.0, 37°C
Procedure: Detection buffer: 25 mM MES, pH 5.0.
Protein precipitant: DMSO/MeOH = 1:1.
Preparation of sample solution: Appropriate amounts of 6PEG-lys(MI-6PEG)-AAN-AM-Dxd and EMC-GGFG-AM-Dxd were weighed and a certain amount of DMSO was added to prepare a stock solution at a concentration of 10 µmol/mL. Then, 10 µL of the stock solution was taken and diluted with 80 µL of DMSO to a concentration of 1 µmol/mL, and then further diluted with pure water at a ratio of 1:4 to achieve a sample solution concentration of 0.2 µmol/mL.
An appropriate amount of flash-frozen lung in liquid nitrogen was placed in a 4 mL EP tube, weighed, and the detection buffer (pH 5.0) was added at a mass-to-volume ratio of 1:5. The tissue was homogenized for 3 min using a tissue grinder, and then the lung tissue homogenate was centrifuged at 12000 rpm for 5 min. The supernatant was collected and stored in a -40°C refrigerator for later use.
The sample solution and the lung tissue homogenate were shaken thoroughly at a volume ratio of 1:9. Another sample solution and the buffer (pH 5.0) were shaken thoroughly at a volume ratio of 1:9 as a blank control solution. The mixtures were placed in a 37°C constant temperature water bath. The sample was taken at 0 h, 2 h, 4 h, and 20 h, 30 µL, respectively, and 90 µL of the protein precipitant was added, the mixture was shaken thoroughly, centrifuged at 12000 rpm for 5 min, the supernatant was transferred to a sampling vial, and HPLC injection was performed.
The percentage of DXD released after the drug entered the lung tissue homogenate was calculated using the following formula: [formula]

SMILES	Aqueous solution stability % (24 h) [1] [%]	Plasma stability % (24 h) [3] [%]	Enzymatic cleavage efficiency % (2 h) [2] [%]	Dxd (%) ([4]; Time 0 h)	Dxd (%) ([4]; Time 2 h)	Dxd (%) ([4]; Time 4 h)	Dxd (%) ([4]; Time 20 h)
CCCCc1nc2c(N)nc3ccccc3c2n1CCCCNC(=O)OCc1ccc(NC(=O)[C@H](CC(N)=O)NC(=O)[C@H](C)NC(=O)[C@H](C)NC(=O)CCOCCOCCOCCOCCOCCOCCNC(=O)CCN2C(=O)C=CC2=O)cc1	95	88	90	–	–	–	–
CC[C@@]1(O)C(=O)OCc2c1cc1n(c2=O)Cc2c-1nc1cc(F)c(C)c3c1c2[C@@H](NC(=O)COCNC(=O)CNC(=O)[C@H](Cc1ccccc1)NC(=O)CNC(=O)CNC(=O)CCCCCN1C(=O)C=CC1=O)CC3	–	–	–	1.47	3.39	14.58	30.93
CCOCc1nc2c(NC(=O)[C@H](CC(N)=O)NC(=O)[C@H](C)NC(=O)[C@H](C)NC(=O)CCOCCOCCOCCOCCOCCOCCNC(=O)CCN3C(=O)C=CC3=O)nc3ccccc3c2n1CC(C)(C)O	95	85	90	–	–	–	–
CCCCc1nc2c(N)nc3ccccc3c2n1CCCCNC(=O)OCc1ccc(NC(=O)[C@H](CC(N)=O)NC(=O)[C@H](C)NC(=O)[C@H](C)NC(=O)CCCCCN2C(=O)C=CC2=O)cc1	95	85	90	–	–	–	–

The next lines start with results.

Aqueous solution stability % (24 h) [1] [%]	Plasma stability % (24 h) [3] [%]	SMILES	Enzymatic cleavage efficiency % (2 h) [2] [%]	Dxd (%) ([4]; Time 0 h)	Dxd (%) ([4]; Time 2 h)	Dxd (%) ([4]; Time 4 h)	Dxd (%) ([4]; Time 20 h)
99	100	CC[C@@]1(O)C(=O)OCc2c1cc1n(c2=O)Cc2c-1nc1cc(F)c(C)c3c1c2[C@@H](NC(=O)COCNC(=O)[C@H](CC(N)=O)NC(=O)[C@H](C)NC(=O)[C@H](C)NC(=O)CCCCCN1C(=O)C=CC1=O)CC3	95	–	–	–	–
100	99	CC[C@@]1(O)C(=O)OCc2c1cc1n(c2=O)Cc2c-1nc1cc(F)c(C)c3c1c2[C@@H](NC(=O)COCNC(=O)[C@H](CC(N)=O)NC(=O)[C@H](C)NC(=O)[C@H](C)NC(=O)CCOCCOCCOCCOCCOCCOCCNC(=O)CCN1C(=O)C=CC1=O)CC3	98	–	–	–	–
100	98	CC[C@@]1(O)C(=O)OCc2c1cc1n(c2=O)Cc2c-1nc1cc(F)c(C)c3c1c2[C@@H](NC(=O)COCNC(=O)[C@H](CC(N)=O)NC(=O)[C@H](C)NC(=O)[C@H](C)NC(=O)[C@H](CCCCNC(=O)CCCCCN1C(=O)C=CC1=O)NC(=O)COCCOCCOCCOCCOCCOC)CC3	97	–	–	–	–
99	100	CCCCc1nc2c(N)nc3ccccc3c2n1CCCCNC(=O)[C@H](CC(N)=O)NC(=O)[C@H](C)NC(=O)[C@H](C)NC(=O)CCOCCOCCOCCOCCOCCOCCNC(=O)CCN1C(=O)C=CC1=O	95	–	–	–	–
95	88	CC[C@@]1(O)C(=O)OCc2c1cc1n(c2=O)Cc2c-1nc1cc(F)c(C)c3c1c2[C@@H](NC(=O)OCc1ccc(NC(=O)[C@H](CC(N)=O)NC(=O)[C@H](C)NC(=O)[C@H](C)NC(=O)CCOCCOCCOCCOCCOCCOCCNC(=O)CCN2C(=O)C=CC2=O)cc1)CC3	95	–	–	–	–
100	98	CC[C@@]1(O)C(=O)OCc2c1cc1n(c2=O)Cc2c-1nc1cc(F)c(C)c3c1c2[C@@H](NC(=O)COCNC(=O)[C@H](CC(N)=O)NC(=O)[C@H](C)NC(=O)[C@H](C)NC(=O)[C@H](CCCCNC(=O)COCCOCCOCCOCCOCCOC)NC(=O)CCCCCN1C(=O)C=CC1=O)CC3	98	–	–	–	–

The structures given here were assigned with low confidence; some may be wrong.
